Reference: PubChem BioAssay AID493014 (National Center for Advancing Translational Sciences (NCATS), 2011)
Where “and” joins values, the source holds several entries; their conditions need not be identical. Equal entries are not always repeated. Some of the results follow. These are further read-outs of the screen, such as a control signal, another cell line or another target. No call is given for them. Compounds called inactive in the main read-out are mostly missing here. The note in brackets gives the kind of curve behind each potency; many fits are weak.

Test: qHTS Assay to Find Inhibitors of Chronic Active B-Cell Receptor Signaling
Details: ABC-DLBCL IkBa-CBG/CBR reporter, luminescence ratio (green luciferase fused to IkBa over red control in TMD8 lymphoma cells), 4 h
Procedure, shortened: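 Doxycycline induced both beetle luciferases in TMD8 lymphoma cells; IKK-driven degradation limits the IkappaBalpha-fused green signal, while red luminescence normalises for cell number and nonspecific effects. Compounds tested up to 46 uM, 4 hrs.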

[1] = measured here: CBR red luminescence, cell number
[2] = measured here: IkBa-CBG green luminescence

SMILES | AC50 [1] | AC50 [2]
Cc1ccc2[nH]c3c(=O)n(CC(=O)NCc4ccco4)ncc3c2c1 | 5.62 µM [falling, single point] | 
O=c1[nH]c(C2CCN(S(=O)(=O)c3ccccc3C(F)(F)F)CC2)nc2c1nnn2Cc1ccccc1 | 35.5 µM [falling, single point] | 
O=C(CCN1C(=O)c2ccccc2S1(=O)=O)Nc1ccc2c(c1)OCCO2 | 35.5 µM [falling, single point] | 
O=C(Nc1ccc2c(c1)OCO2)c1ccc(Br)o1 | 29.1 µM [falling, single point] | 
O=C(C1=NNC2C(=O)N(c3ccccc3)C(=O)C12)c1nc(Cl)ccc1Cl (stereo not drawn) | 6.51 µM [falling, partial curve] | 
COc1cccc(C2N(c3cccc(Cl)c3)C(=O)C3CCCN32)c1OC (stereo not drawn) | 6.51 µM [rising, single point] | 
CCOC(=O)c1sc(NC(C)=O)cc1C | 29.1 µM [rising, single point] | 
CCn1c(/C=C/c2ccc(O)c(O)c2)nc2ccccc2c1=O | 11.2 µM [falling, partial curve, poor fit] | 
CCNc1nc(Sc2ccc(C)cc2)cc(C(F)(F)F)n1 | 14.1 µM [rising, single point] | 
Cc1ccc(NC(=O)CCOc2ccccc2)cc1 | 100 nM [rising, full curve, poor fit] and 6.31 µM [rising, single point] | 
CCn1c(=O)cc(OCC(=O)NCc2cccnc2)c2ccccc21 | 35.5 µM [falling, single point] | 
C=CCOC(=O)c1[nH]c2c(c1C)C(=O)CC(c1cc(OC)c(OC)c(OC)c1)C2 (stereo not drawn) | 16.4 µM [falling, partial curve, poor fit] | 
CN(C)S(=O)(=O)c1cccc(NC(=S)N/N=C/c2cccc(O)c2)c1 | 6.31 µM [falling, full curve] | 
Cn1c(N)c(C(=O)COC(=O)c2ccccc2C(=O)c2ccc(Cl)c([N+](=O)[O-])c2)c(=O)n(C)c1=O | 25.9 µM [falling, single point] | 
C=CCSc1nnc(Cn2c(=O)sc3ccccc32)n1C | 29.1 µM [rising, single point] | 
O=C(c1ccc(F)cc1)c1cc2ccc(O)cc2oc1=O | 35.5 µM [falling, single point] | 
Cc1ccc(NC(=O)Nc2c(Cl)cccc2Cl)cn1 | 0.708 µM [falling, partial curve, poor fit] | 
COCCn1c(C)cc(/C=N/NC(=O)c2cc3ccccc3cc2O)c1C | 0.231 µM [rising, full curve, poor fit] | 
O=C(CS(=O)(=O)Cc1ccccc1)Nc1nc2ccccc2s1 | 29.1 µM [falling, single point] | 
COC(=O)c1cc(Br)c(=O)n(-c2ccccc2F)c1 | 3.16 µM [rising, full curve, poor fit] | 

Gathered by group, the compounds so far containing bromine.
SMILES | AC50 [1] | AC50 [2]
O=C(Nc1ccc2c(c1)OCO2)c1ccc(Br)o1 | 29.1 µM [falling, single point] | 
COC(=O)c1cc(Br)c(=O)n(-c2ccccc2F)c1 | 3.16 µM [rising, full curve, poor fit] | 

Continued:

SMILES | AC50 [1] | AC50 [2]
O=C(Cc1ccccc1)NCC(=O)N1CCCCCC1 | 16.4 µM [falling, single point] | 
O=C(Nc1ncccc1O)c1ccc(NS(=O)(=O)c2ccc3[nH]c(=O)[nH]c3c2)cc1 | 10.3 µM [rising, partial curve, poor fit] | 
CC(OC(=O)c1cccc(S(=O)(=O)N2CCOCC2)c1)C(=O)NC1CCCCC1C (stereo not drawn) | 6.51 µM [rising, full curve] | 
COc1ccc(/C(C)=N\NC(=O)c2ccc3c(c2)OCO3)cc1OC | 7.94 µM [falling, partial curve] | 
CC(=O)Nc1ccc(NC(=O)Nc2ccccc2)cc1 | 2.82 µM [falling, full curve] | 
Cc1cc(C(F)(F)F)c(C#N)c(SCC(=O)Nc2nc3ccccc3s2)n1 | 5.8 µM [falling, partial curve, poor fit] | 
CCN(CC(=O)Nc1cc(Cl)ccc1C)C(=O)c1nc2nc(C)cc(C)n2n1 | 29.1 µM [rising, single point] | 
CCn1c(=O)c2sccc2n2c(CCCC(=O)NCCc3ccc(S(N)(=O)=O)cc3)nnc12 | 3.55 µM [rising, single point] | 6.31 µM [falling, partial curve, poor fit]
CN(C)c1ccc(NC(=O)Nc2csc3ccccc23)cc1 | 11.2 µM [falling, partial curve, poor fit] | 
COc1ccc(N2CCN(C(=O)Cc3ccc(Br)cc3)CC2)cc1 | 0.1 µM [rising, full curve, poor fit] | 
O=C(NC1CCCCC1)c1n[nH]c2c1CCCCC2 | 0.326 µM [falling, full curve] | 
CCN(CC)S(=O)(=O)c1cccc(C(=O)N[C@H](C(=O)NC2=NCCS2)C(C)C)c1 | 0.517 µM [rising, full curve, poor fit] | 
CC(=O)c1c(C)[nH]c(C(=O)OCCOc2ccccc2)c1C | 0.1 µM [rising, full curve, poor fit] | 
CC1CCN(S(=O)(=O)c2ccc3ccccc3c2)CC1 | 9.2 µM [rising, partial curve] | 
O=C(Nn1c(C2CCCCC2)nc2ccccc2c1=O)c1ccc(Cl)c([N+](=O)[O-])c1 | 29.1 µM [falling, single point] | 18.4 µM [rising, partial curve, poor fit]
Cc1cccc(NC(=O)Nc2ccc(F)cc2)n1 | 0.112 µM [rising, full curve, poor fit] | 
C=CCn1c(SCc2ccc(C(=O)Nc3nccs3)cc2)nnc1-c1ccc(C)c(Cl)c1 | 20.6 µM [falling, partial curve] | 16.4 µM [rising, partial curve]
Cc1nc2cc(C(=O)O)ccc2s1 | 1.41 µM [rising, full curve, poor fit] | 
COc1ccc(NC(=O)C(C)N(c2ccc(C)cc2)S(C)(=O)=O)cc1 (stereo not drawn) | 2.91 µM [rising, single point] | 
O=C(Cn1nnc2ccccc21)NC1CCCCC1 | 35.5 µM [rising, partial curve, poor fit] | 
